# “And” between values parts separate entries of the source, which are not always exact repeats. Equal values may be shown once. Screen size: about 230,000 compounds; about 310 (0.13%) were called active. Inconclusive means that the source gave no clear call. Such entries were picked first, then a sample of the others. The call rests on the fitted dose curve; in most records, active means well fitted activation curve with a large enough effect; inconclusive means small, poorly fitted or top-dose-only effect; inactive means no such curve, though single readings can be large or run the other way. A potency beside an inconclusive call is a rough fit, not a confirmed value.
# Test: qHTS Multiplex Assay to Identify Dual Action Probes in a Cell Model of Huntington: Cytoprotection (ATP); further: nearly all actives have a fitted effect of over 45% in size;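 on cytoprotection (ATP increase): toxic huntingtin expression switched on by the ecdysone agonist tebufenozide; % of control where 0% means no effect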
# Details: PC12 HTT-Q103 induced, ATP luminescence, 40 h; cytoprotection (ATP increase): at 56.4 µM (top of the series) unless noted
# How it was run: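 Cells were plated at 1500 per well in phenol red-free DMEM with 5% equine and 5% calf serum. Tebufenozide (100 nM final) and compounds were added, then ATPlite reagent, and luminescence was read.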
# Potency means the concentration at half of the fitted maximal effect.
Structure (SMILES),Potency,cytoprotection (ATP increase)
O=C(Cc1ccc([N+](=O)[O-])cc1)N/N=C/c1ccc([N+](=O)[O-])o1,inactive,–
Cc1ccc(NC(=O)C[n+]2ccn(C3=C([O-])c4ccccc4C3=O)c2)cc1,"inconclusive: 0.708 µM [activator, full curve, poor fit]",–
CCc1ccccc1NC(=O)c1cc(=O)c2ccccc2o1,inactive,–
COc1ccc(Oc2nc(-c3ccccn3)ncc2OC)cc1,"inconclusive: 0.794 µM [activator, full curve, poor fit]",–
COc1ccc(S(=O)(=O)N(C)c2ccc(OCC(=O)Nc3cc(C)on3)cc2)cc1,"inconclusive: 3.16 µM [activator, partial curve]",–
CCc1nnc(SCC(=O)NC2CCCC2)nc1CC,"inconclusive: 1.26 µM [activator, single point]",–
O=C(Nc1ncc(S(=O)(=O)c2ccc([N+](=O)[O-])cc2)s1)c1ccc2ccccc2c1,"inconclusive: 4.47 µM [activator, single point]",–
Cc1ccc(SC(CC(=O)c2ccc(C)cc2)C(=O)O)cc1 (stereo unspecified),"inconclusive: 35.5 µM [activator, single point]",–
Cc1ccc2c(Cl)c(C)c(N3CCCCC3)nc2n1,"inconclusive: 1.12 µM [activator, partial curve]",–
CCOc1ccc(-n2c(=S)sc3c(=O)[nH]c(SCC(=O)C(C)(C)C)nc32)cc1,"inconclusive: 35.5 µM [activator, single point]",–
C=C(C(=O)OC)C(NC(=O)OC)c1ccccc1 (stereo unspecified),inactive,–
Nc1ccc(S(=O)(=O)Nc2ccnn2-c2ccccc2)cc1,"inconclusive: 0.0562 µM [activator, full curve, poor fit]",–
NC1=NS(=O)(=O)NC1c1cccc(F)c1 (stereo unspecified),"inconclusive: 1.12 µM [activator, partial curve]",–
Fc1ccccc1Cc1noc(CN2CCC(OCc3cccnc3)CC2)n1,"inconclusive: 5.01 µM [activator, single point]",–
O=C1OC(/C(=C\Nc2ccc(F)cc2F)[N+](=O)[O-])c2ccccc21 (stereo unspecified),inactive,–
CC1CCN(c2c([N+](=O)[O-])c(=O)n(-c3ccccc3)c3ccccc23)CC1,"inconclusive: 5.62 µM [activator, single point]",–
N#C/C(=C/c1ccc(N2CCOCC2)o1)c1ccc(Cl)cc1,"inconclusive: 11.2 µM [activator, partial curve]",–
O=C(c1ccco1)N1CCN(C(=O)c2cc(-c3ccncc3)nc3ccc(Br)cc23)CC1,inactive,–
c1ccc(-c2nc(-c3ccccc3)c(Nc3ccc4ccccc4c3)o2)cc1,"inconclusive: 3.16 µM [activator, partial curve]",–
CCN1/C(=C/C=C/c2sc3ccccc3[n+]2CC)Sc2ccccc21,inactive,–
Cc1cc(C)n(Cc2ccc(NC(=O)c3nn(C)cc3[N+](=O)[O-])cc2)n1,"inconclusive: 35.5 µM [activator, single point]",–
C/C=C(/C)C#N,"inconclusive: 39.8 µM [activator, single point]",–

Structure (SMILES),Potency,cytoprotection (ATP increase)
CSCC[C@H](NC(=O)c1ccc(Cl)c([N+](=O)[O-])c1)c1nc2ccccc2[nH]1,–,inactive: -2.43% [at 1.9 µM]
CCOC(=O)CSc1nnc(CNc2ccccc2Cl)n1-c1ccccc1,"inconclusive: 0.355 µM [activator, partial curve]",–
Cc1[nH]c2ccccc2c1SCC(=O)NC1CCCCC1,"inconclusive: 0.112 µM [activator, partial curve, poor fit]",–
O=C(Nc1ccc(O)cc1)c1cccc(Oc2ccc([N+](=O)[O-])cc2)c1,–,inactive: 1.14% [at 10 µM]
CO[C@@H]1COC(=O)CC=C[C@@H](C)[C@@H]2C=C[C@H](O)[C@@H](COC(=O)C/C=C\[C@H]1C)O2,"inconclusive: 1.12 µM [activator, full curve, poor fit]",–
Cc1cc(Cl)ccc1C(=O)C1CCCN(C(=O)c2n[nH]c3c2CCCC3)C1 (stereo unspecified),inactive,–
C[C@@H]1C[C@](C)(C(=O)c2ccc3ccccc3c2)C=C1c1ccc2ccccc2c1,"inconclusive: 1 µM [activator, full curve, poor fit]",–
Cc1cc(Br)ccc1NC(=O)C1CCCO1 (stereo unspecified),"inconclusive: 1.26 µM [activator, single point]",–
NS(=O)(=O)c1ccc(O)c(N2C(=O)c3cccc4c(C(=O)O)ccc(c34)C2=O)c1,"inconclusive: 0.01 µM [activator, partial curve, poor fit]",–
Cc1cccc2cc(CNCC3CCCO3)c(Cl)nc12 (stereo unspecified),"inconclusive: 3.16 µM [activator, partial curve]",–
Cc1cc(N2CCN(C(=O)c3ccco3)CC2)c2ccccc2n1,–,inactive: 4.81% [at 10 µM]
O=c1cc(-c2ccc(O)c(O)c2)oc2cc(O[C@@H]3O[C@@H](CO)[C@@H](O)[C@@H](O)[C@H]3O)cc(O)c12,"inconclusive: 39.8 µM [activator, partial curve, poor fit]",–
CC1CCN(CCC(=O)N2CCCc3c2c(=O)oc2ccc(O)cc32)CC1,"inconclusive: 20 µM [activator, single point]",–
Cc1cc2ccccn2c1C(C[N+](=O)[O-])c1ccc(N(C)C)cc1 (stereo unspecified),"inconclusive: 1.26 µM [activator, single point]",–
CCCCCNC(=O)CCn1c(=O)oc2ccccc21,–,inactive: 9.65% [at 10 µM]
CC(=O)NCc1ccc(C(=O)CSc2nnc(-c3ccncc3)n2Cc2ccccc2)o1,"inconclusive: 1.26 µM [activator, single point]",–
Cc1cc(C)c2nc(N3CCC(C(=O)N4CCCC4)CC3)sc2c1,inactive,–
COc1cc(OC)cc(-c2nnc(SCC(=O)N(Cc3ccccc3)C(C)(C)C)o2)c1,"inconclusive: 20 µM [activator, single point]",–
COc1ccc(/C=C/C(=O)c2ccc3ccccc3c2O)cc1CN1CCOCC1,"inconclusive: 3.98 µM [activator, partial curve]",–
COc1ccc(/C=N/NC(=O)c2ccccc2NC(=O)c2ccco2)c(OC)c1,–,inactive: 12.3% [at 10 µM]
CCCCn1c(N)c(C(=S)NC(=O)CC(C)(C)C)c(=O)n(C)c1=O,"inconclusive: 3.55 µM [activator, single point]",–
O=C(Cn1c(=O)sc2ccccc21)Nc1ccc(S(=O)(=O)N2CCCCC2)cc1,"inconclusive: 39.8 µM [activator, single point]",–

Structure (SMILES),Potency,cytoprotection (ATP increase)
COC(=O)[C@@]1(Cc2ccc(OC)cc2)[C@H]2c3cc(C(=O)N(C)C)n(Cc4ccc(Cl)c(C(F)(F)F)c4)c3C[C@H]2CN1C(=O)c1ccccc1,"inconclusive: 20 µM [activator, single point]",–
O=C1CCCC=C1[C@@H](O)COCc1ccccc1,–,inactive: 2.97% [at 10 µM]
CCCCCCCCCn1c2c(c(=N)c3c1CCC3)CCC2,–,inactive: -51.7% [at 10 µM]
CCc1c(C)sc(NC(=O)Cn2nc(C)c([N+](=O)[O-])c2C)c1C(N)=O,–,inactive: 3.89% [at 10 µM]
COCCNc1nc(-c2cc3ccccc3o2)cs1,"inconclusive: 0.631 µM [activator, single point]",–
CC#CCOC(=O)C1=CCCN(C)C1,"inconclusive: 1.12 µM [activator, single point] and inconclusive: 4.47 µM [activator, partial curve, poor fit]",–
CCOC(=O)C[C@@H](C(=O)OCC)[C@@H]1CCCCC1=O,–,inactive: 1.01% [at 10 µM]
CC(=O)N(C)C1=C(O)c2ccccc2C(=O)C1=O,"inconclusive: 5.62 µM [activator, single point]",–
CCOC(=O)C1CCN(c2c(NCCC(C)C)c(=O)c2=O)CC1,–,inactive: 1.37% [at 10 µM]
CC(O)C(NS(=O)(=O)c1ccc(Cl)cc1)C(=O)OCC(=O)Nc1cccnc1Cl (stereo unspecified),"inconclusive: 2 µM [activator, partial curve]",–
CCCN1Cc2cccc(C(=O)Nc3ccc(C)cc3)c2C1=O,inactive,–
Cc1ccc(NC(=O)C(=O)NCc2ccncc2)cc1,"inconclusive: 0.355 µM [activator, partial curve]",–
O=C1CC2(CCCC2)CC(=O)N1CCCCN1CCN(c2ncccn2)CC1,"inconclusive: 35.5 µM [activator, partial curve, poor fit]",–
COc1cccc([C@@H]2Oc3ccc(OC)cc3/C(=N/O[C@@H](C)c3cc(-c4c(C)cc(C)cc4C)no3)[C@@H]2O)c1,–,inactive: 0.199% [at 10 µM]
CCC(C)NCCOCCOc1ccc(Br)cc1C (stereo unspecified),"inconclusive: 0.891 µM [activator, single point]",–
CN1CCN(c2ccnc(-c3cccnc3)n2)CC1,inactive,–
Cc1nn(Cc2c(Cl)cccc2Cl)c(Cl)c1/C=N/NC(=O)c1cccnc1,–,inactive: 20% [at 10 µM]
O=C1CCC[C@H]2OC12[C@@H](O)CCc1ccccc1 (stereo partly specified),–,inactive: -101% [at 10 µM]
COC(=O)C1(C)C=C(Nc2ccc(OC)cc2)C(=O)N1c1ccc(OC)cc1 (stereo unspecified),"inconclusive: 3.55 µM [activator, single point]",–
CC(C)=CCC/C(C)=C/CO,"inconclusive: 2.82 µM [activator, single point]",–
Cc1ccc(N2C(=O)C3NN=C(C(=O)OCc4ccccc4)C3C2=O)cc1 (stereo unspecified),"inconclusive: 5.62 µM [activator, single point]",–
CCn1ccnc1CC1COc2ccccc2O1 (stereo unspecified),"inconclusive: 0.112 µM [activator, full curve, poor fit]",–

# As entered above:
# COC(=O)C1(C)C=C(Nc2ccc(OC)cc2)C(=O)N1c1ccc(OC)cc1 (stereo unspecified) – Potency: inconclusive: 3.55 µM [activator, single point]
# CCOC(=O)C1CCN(c2c(NCCC(C)C)c(=O)c2=O)CC1 – cytoprotection (ATP increase): inactive: 1.37% [at 10 µM]
# COCCNc1nc(-c2cc3ccccc3o2)cs1 – Potency: inconclusive: 0.631 µM [activator, single point]
# O=C(Cc1ccc([N+](=O)[O-])cc1)N/N=C/c1ccc([N+](=O)[O-])o1 – Potency: inactive
# CCc1c(C)sc(NC(=O)Cn2nc(C)c([N+](=O)[O-])c2C)c1C(N)=O – cytoprotection (ATP increase): inactive: 3.89% [at 10 µM]
